The record followed here is article PMC11191273.

Amino acid sequences for entries named in this document (tags omitted).
UniProt P18085: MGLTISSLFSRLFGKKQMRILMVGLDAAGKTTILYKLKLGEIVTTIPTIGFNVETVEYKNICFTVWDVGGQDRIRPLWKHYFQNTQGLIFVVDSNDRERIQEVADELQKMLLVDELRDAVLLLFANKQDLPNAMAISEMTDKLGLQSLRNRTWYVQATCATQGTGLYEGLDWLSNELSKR
UniProt Q9UMX0: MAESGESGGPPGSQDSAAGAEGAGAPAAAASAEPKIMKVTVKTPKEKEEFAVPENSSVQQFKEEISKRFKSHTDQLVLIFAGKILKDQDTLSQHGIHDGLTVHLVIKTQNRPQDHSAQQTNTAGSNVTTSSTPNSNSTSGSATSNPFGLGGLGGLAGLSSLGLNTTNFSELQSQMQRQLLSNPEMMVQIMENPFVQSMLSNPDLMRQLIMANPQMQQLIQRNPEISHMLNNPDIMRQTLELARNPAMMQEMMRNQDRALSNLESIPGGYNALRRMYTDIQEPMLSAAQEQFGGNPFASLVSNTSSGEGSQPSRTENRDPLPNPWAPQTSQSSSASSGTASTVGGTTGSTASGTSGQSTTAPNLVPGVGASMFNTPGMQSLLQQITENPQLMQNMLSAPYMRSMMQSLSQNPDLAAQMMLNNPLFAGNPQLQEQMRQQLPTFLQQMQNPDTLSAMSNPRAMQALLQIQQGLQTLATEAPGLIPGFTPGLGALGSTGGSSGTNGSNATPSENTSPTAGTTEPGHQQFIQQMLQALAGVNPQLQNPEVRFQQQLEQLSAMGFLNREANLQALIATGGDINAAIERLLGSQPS

No constants are given. Whether binding was seen depends on the method and setting. In cells and extracts the contact can be indirect. Some entries that bind do so weakly or less than the wild type.

The target of one test is 3Flag-ARF4 (UniProt P18085). In words: co-IP; 3Flag-ARF4 hESC cell line used to pull down the protein (Flag antibody); UBQLN1 detected in the precipitate.
Test [1] addresses 3Flag-UBQLN1 (Ubiquilin1, Flag-tagged) (human) (UniProt Q9UMX0). In words: co-IP; anti-Flag immunoprecipitation from lysate (NETN buffer) of hESCs stably expressing 3Flag-UBQLN1, Protein G beads, 4 °C; blot for mitochondria components; IgG as control.

Take “UBQLN1 (in the 3Flag-ARF4 cell line) (from UniProt Q9UMX0 1-589)”: the binding entry with 3Flag-ARF4 is “binds”.

B1: SDHB (protein, UniProt P21912 29-280)
chain: AQTAAATAPRIKKFAIYRWDPDKAGDKPHMQTYEVDLNKCGPMVLDALIKIKNEVDSTLTFRRSCREGICGSCAMNINGGNTLACTRRIDTNLNKVSKIYPLPHMYVIKDLVPDLSNFYAQYKSIEPYLKKKDESQEGKQQYLQSIEEREKLDGLYECILCACCSTSCPSYWWNGDKYLGPAVLMQAYRWMIDSRDDFTEERLAKLQDPFSLYRCHTIMNCTRTCPKGLNPGKAIAEIKKMMATYKEKKASV
As to B1, in test [1], the binding result was “no binding”.
